PubChem BioAssay AID1508597, Cure First – 2020
This is a random part of the about 2,100 reagents, in one setting of the screen. 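Calls flag viability under 80% in either arm, not effects specific to rucaparib; the reference for percent is not stated.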 Unmarked entries are inactive. A reagent listed more than once was tested more than once; the source does not tell the runs apart. The record does not give: the 100% reference.

Screen: 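Genes whose silencing sensitises or protects ovarian cancer cells against rucaparib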 (primary screen)
Cell system: human ovarian carcinoma lines grown from tumours: OCI-P5x (papillary serous) and OCI-C5x (clear cell)
Knock-down reagent: siRNA pool against human genes, 1.25 pmol siRNA per well
Time to read-out: 72 h or 96 h, depending on the cell culture
Treatment: rucaparib 20 µM (about IC30) or vehicle, present until read-out
Rucaparib or vehicle: Vehicle
Cell line: OCI-P5x (serous)
Read-out: 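ATP luminescence measured at 72 or 96 h according to the culture, then normalised and expressed as percent viability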
Scale: viability, normalised: higher = more viable cells remaining
Active means: 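a well counts as a hit if its normalised viability is under 80 percent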
Meaning of the calls: active = viability under 80%; inactive = viability 80% or more

gene symbol,technical replicate,"viability, normalised (%)"
GCH1,1,77.1 (active)
GCH1,2,71.3 (active)
GCH1,3,77 (active)
MEN1,1,61.2 (active)
MEN1,2,69.8 (active)
MEN1,3,66.7 (active)
PHF20L1,1,60.7 (active)
PHF20L1,2,68.4 (active)
PHF20L1,3,83.8
EIF4A1,1,47.5 (active)
EIF4A1,2,56.1 (active)
EIF4A1,3,68.1 (active)
PDE7B,1,50.4 (active)
PDE7B,2,72.3 (active)
PDE7B,3,71.4 (active)
POT1,1,62.1 (active)
POT1,2,45.6 (active)
POT1,3,48.3 (active)

Next part, starting with the last 5 of the part before.
gene symbol,technical replicate,"viability, normalised (%)"
PDE7B,2,72.3 (active)
PDE7B,3,71.4 (active)
POT1,1,62.1 (active)
POT1,2,45.6 (active)
POT1,3,48.3 (active)
SMNDC1,1,50 (active)
SMNDC1,2,57.3 (active)
SMNDC1,3,66.4 (active)
USP16,1,48.9 (active)
USP16,2,53 (active)
USP16,3,46.6 (active)
PRPF19,1,43.8 (active)
PRPF19,1,52.4 (active)
PRPF19,2,45.7 (active)
PRPF19,2,46 (active)
PRPF19,3,42.7 (active)
PRPF19,3,67.1 (active)
RLIM,1,71.9 (active)
RLIM,2,91.4
RLIM,3,163
MAD2L2,1,69.9 (active)
MAD2L2,2,64.3 (active)
MAD2L2,3,71.3 (active)
SBK1,1,76.4 (active)
SBK1,2,74.7 (active)
SBK1,3,80.4
